The nature of this data set: soluble on expression in E. coli; label from the status in PepcDB or PDB records.

As to “MGSTAVVHGDDLMEPTLQSILSQKTLRWIFVGGKGGVGKTTTSCSLAIQLAKVRKSVLLISTDPAHNLSDAFGQKFGKEARLVDGYSNLSAMEIDPNGSIQDLLASGDSQGDDPLAGLGMGNMMQDLAFSIPGVDEAMSFAEVLKQVKSLSYEVIVFDTAPTGHTLRFLQFPTVLEKALAKLSQLSSQFGPMLNSILGARGGLPGGQNIDELLQKMESLRETISEVNTQFKNPDMTTFVCVCIAEFLSLYETERMIQELTSYGIDTHAIVVNQLLFPKEGSGCEQCNARRKMQKKYLEQIEELYEDFNVVRMPLLVEEVRGKEKLEKFSEMLVHPYVPPQLEHHHHHH”, the “soluble on expression in E. coli” value is “soluble”.

As to “MGPRASLSRLRELCGHWLRPALHTKKQILELLVLEQFLSVLPPHLLGRLQGQPLRDGEEVVLLLEGIHREPSHAGPLDFSCNAGKSCPRADVTLEEKGCASQVPSHSPKKELPAEEPSVLGPSDEPPRPQPRAAQPAEPGQWRLPPSSKQPLSPGPQKTFQALQESSPQGPSPWPEESSRDQELAAVLECLTFEDVPENKAWPAHPLGFGSRTPDKEEFKQEEPKGAAWPTPILAESQADSPGVPGEPCAQSLGRGAAASGPGEDGSLLGSSEILEVKVAEGVPEPNPELQFICADCGVSFPQLSRLKAHQLRSHPAGRSFLCLCCGKSFGRSSILKLHMRTHTDERPHACHLCGHRFRQSSHLSKHLLTHSSEPAFLCAECGRGFQRRASLVQHLLAHAQDQKPPCAPESKAEAPPLTDVLCSHCGQSFQRRSSLKRHLRIHARDKDRRSSEGSGSRRRDSDRRPFVCSDCGKAFRRSEHLVAHRRVHTGERPFSCQACGRSFTQSSQLVSHQRVHTGEKPYACPQCGKRFVRRASLARHLLTHGGPRPHHCTQCGKSFGQTQDLARHQRSHTGEKPCRCSECGEGFSQSAHLARHQRIHTGEKPHACDTCGHRFRNSSNLARHRRSHTGERPYSCQTCGRSFRRNAHLRRHLATHAEPGQEQAEPPQECVECGKSFSRSCNLLRHLLVHTGARPYSCTQCGRSFSRNSHLLRHLRTHARETLY”, the “soluble on expression in E. coli” value is given as “soluble”.

With “SQVKQKVYELYKGTVERVTGPRTVSAFLDKGVLSVPEFILAGDNLVSKCPTWSWEAGDPSKRKPYLPPDKQFLVTRNVPCLRRAVSLEEEYDAAGAEVVLGDDEDGEGWLATHGVQASKPEEEEDIPSMDTLDIGKTEGINSIPSYFSAGKKAEEEEDIPDMDTYEDTGNDSVATAQPSYFVAEEPEDDNILRTRTYDVSITYDKYYQTPRVWLTGYDESRMPLKPELVFEDISQDHARKTVTIEDHPHLSAGKHASVHPCKHAAVMKKIIDVLMSRGVEPEVDK”, the “soluble on expression in E. coli” value is given as “soluble”.

Regarding “MTKKKKLTHGQVRRVRNNQHKKLKQEESIVWDEALLGSAQPGLVITRFGQHADIEDPVTGEIHRCNLRRGIESLVSGDNVLWRPGAETLAGISGVVEAVEARSSVLVRPDYYDGLKPVAANVDQMVIVSSVLPELSLNIIDRYLIASETLGIAPLIVLNKIDLLSPELREQYSTWLNDYRAIGYDVLYVSKKTGEGIADLEVKLRDRTNVFVGQSGVGKSSLVNALLPELEEDVEEGAISETSGLGQHTTTAARLYHIPSGGDLIDSPGVREFGLWHLETDDVTKAYVEFRPYLGGCKFRDCKHGDDPGCLLREAVSKGEISALRFDNYHRIVQSMTENKANRQYSRSKKPICKSKLLASLEHLLTEGAIFSNISRPSPLYWNVNHG”, the “soluble on expression in E. coli” value is reported as “not soluble”.

As to “MAKRDYYEVLEITKSASADEIKKAYRKLAIKFHPDKNPDNPEAEEKFKEAAEAYEVLSTPEKRQRYDQYGHQAAGGGGYGGGMNMDDIFSQFGDVFGSGGSPFESFFGGGGGGRGRGVRKGSNLRIKLKLNLEEIANGCEKKIKVKRQVACDECSGTGAKNGAVQKCGTCNGTGQVKRVVNTMLGQMMSATTCPTCNGEGTTIKDKCTSCHGQGTVEKEETITIKIPAGVVDGMQLSMSGKGNMPPRGGVAGDLLILIEEIEDEQLKRDGLNIIYELYVTFFDAVFGTSVEVPTVDGKVKIKIEPGTQSGKILRLRSKGLKDVNSYQKGDQLIYVNVWTPQTLSKEEKELLATIKESENFKPNPGKNDKSFFERMKEFF”, the “soluble on expression in E. coli” value is listed as “not soluble”.

Consider “MSLTLQELESTLWQCADILRGELSAAEYKDYIFGMLFLKRLNDEFDEEREERRKEFLEDGLDKEEVIELLEDPSIYETFFVPEQARWEKLRNLTLNIGPELDKAFKALEDEPKNSELVGVLSTTNYNDKEKVPDKKLAQLLVLFSTVNLANSNLASEDMLGDAYQYLIKQFADQGGKKGGEFYTPTEVVKVITNILKPQEGDRIYDPTCGSGGMLIQSIEYVKKHGGNPKNLSLFGQEINLSTWAICKMNMLFHGAKGADIQKGDTIREPKHTEGGALKVFDKVLANPPFSLKNWGAEEASYDAFHRFTYGIPPKSYGDLAFVEHMLGSLNMKGKMASVVPHGVLFRGSAEGKIRKGFIEDDLIEAVIGLPQNLFYGTGIPAAILVLNKAKSEERKNKILFIDGSNDFVKQGNKNKLREEDIEKIITAFDKFEDVEKYANVIDLETIKENDYNLNISRYVDTTEEEEPVDIQKVIDEIKELEKEEEKTKEKLNGYLKELGFDEGHHHHHH”, for which the “soluble on expression in E. coli” value is on record as “soluble”.

On to “GGALSYETEILTVEYGLLPIGKIVEKRIECTVYSVDNNGNIYTQPVAQWHDRGEQEVFEYCLEDGSLIRATKDHKFMTVDGQMLPIDEIFERELDLMRVDNLPNIKIATRKYLGKQNVYDIGVERDHNFALKNGFIASN”, for which the “soluble on expression in E. coli” value is recorded as “soluble”.

Consider “SESRGGRDRKLFVGMLNKQQSEEDVLRLFQPFGVIDECTVLRGPDGSSKGCAFVKFSSHTEAQAAIHALHGSQTMPGASSSLVVKFADTDKE”, for which the “soluble on expression in E. coli” value is on record as “soluble”.

“MGNKQGKTDVILIGAGIMSATLGTLLKELAPEWDIVVFERLEEAGAESSNEWNNAGTGHAALCELNYTVEKSDGSIDISKAIKINEQFYVSLQFWAHLVNSGVLANPKEFIRPLPHMSFVQGEDNVAFLKKRHETMAANPLFKGMEFSDDPKKLAEWVPLMMEDRVVTEPIAATRIESGTDVNFGALTRQLFEHLKRKNVNIHYRHHVEDIQRTSDGLWELKVRNLDTGAVERHAAKFVFIGAGGGSLHLLQKSGIPEGKGIGGFPVSGLFMVCNNPEVVEKHHAKVYGKAKVGAPPMSVPHLDTRFIDNQKMLLFGPFAGFSPKFLKNGSMLDLFTSIKPHNVLTILAAGVKNMALTNYLIQQVLLSKEQRMQELREFVPTAKSDEWDIVVAGQRVQVIKDTESGGKGTLQFGTEVVHAADGSIAALLGASPGASTAVHVMLEVIEKCFPEQMKEWRPKVKEMIPSYGESLMKNESLLRQVQASTAEALGLNGHFALQLA”: the “soluble on expression in E. coli” value is recorded as “not soluble”.

“MSRDTERYPVKHANSLWQIYKTVPFWKVVKNFVVIQLARYTPFVSVKNWLYRTFLKMDVGEKTAFALMVMPDIMFPERISVGRNSIIGYNTTILAHEYLIEEYRLGDVIIGDEVMVGANTTILPGVTIGDRAIIAAGTVVHKNVPPGAFVGGNPLEHHHHHH”: the “soluble on expression in E. coli” value is listed as “soluble”.

As for “MEQRGRASQDEEQAIVGAETGSQPSLPVSPMRPIIAPSPAMVLPTPGHGMGIPQFGPVGLPAQASTPMLSSTPGPSYSSAPTPMPNPSAANLWPTYKLVAEIPNAHKKSISGIKFSPDGRYMGSGSADCSIKIWRMDFVYEKTLMGHRLGINEFSWSSDSKLIVSCSDDKLVKVFDVSSGRCVKTLKGHTNYVFCCCFNPSGTLIASGSFDETIRIWCARNGNTIFSIPGHEDPVSSVCFNRDGAYLASGSYDGIVRIWDSTTGTCVKTLIDEEHPPITHVKFSPNGKYILASNLNNTLKLWDYQKLRVLKEYTGHENSKYCVAANFSVTGGKWIVSGSEDHKVYIWNLQTREILQTLDGHNTAVMCTDCHPGQNIIASAALEPDMRIKIWRSQS”, the “soluble on expression in E. coli” value is recorded as “not soluble”.

Turning to “LQPATAEAADSYKIVGYYPSWAAYGRNYNVADIDPTKVTHINYAFADICWNGIHGNPDPSGPNPVTWTCQNEKSQTINVPNGTIVLGDPWIDTGKTFAGDTWDQPIAGNINQLNKLKQTNPNLKTIISVGGWTWSNRFSDVAATAATREVFANSAVDFLRKYNFDGVDLDWEYPVSGGLDGNSKRPEDKQNYTLLLSKIREKLDAAGAVDGKKYLLTIASGASATYAANTELAKIAAIVDWINIMTYDFNGAWQKISAHNAPLNYDPAASAAGVPDANTFNVAAGAQGHLDAGVPAAKLVLGVPFYGRGWDGCAQAGNGQYQTCTGGSSVGTWEAGSFDFYDLEANYINKNGYTRYWNDTAKVPYLYNASNKRFISYDDAESVGYKTAYIKSKGLGGAMFWELSGDRNKTLQNKLKADL”, the “soluble on expression in E. coli” value is “soluble”.

Take “MVNALEVPADLLIRRVARKLKEKYPQVKPPAWAYFAKTGPHKERPPTDRDWWYVRAASILRKLYKSPEPIGIETFRTIYGGRQNRGSAPEHFRKAGGSVPRKILQQLEEAGLVVKVPGRGRTISPAGRSLLDTTAREIMEELVKTRPELERYLAAAAAALEHHHHHH”: the “soluble on expression in E. coli” value is listed as “soluble”.
